Source: the supplement of paper PMC10849652
Some of the results follow.

Protein sequences, listed by entry. Tags and fused reporters are not part of them. Lines headed by an entry give the natural chain unless they say otherwise; changes in a name come on top.
UniProt Q9NQZ7: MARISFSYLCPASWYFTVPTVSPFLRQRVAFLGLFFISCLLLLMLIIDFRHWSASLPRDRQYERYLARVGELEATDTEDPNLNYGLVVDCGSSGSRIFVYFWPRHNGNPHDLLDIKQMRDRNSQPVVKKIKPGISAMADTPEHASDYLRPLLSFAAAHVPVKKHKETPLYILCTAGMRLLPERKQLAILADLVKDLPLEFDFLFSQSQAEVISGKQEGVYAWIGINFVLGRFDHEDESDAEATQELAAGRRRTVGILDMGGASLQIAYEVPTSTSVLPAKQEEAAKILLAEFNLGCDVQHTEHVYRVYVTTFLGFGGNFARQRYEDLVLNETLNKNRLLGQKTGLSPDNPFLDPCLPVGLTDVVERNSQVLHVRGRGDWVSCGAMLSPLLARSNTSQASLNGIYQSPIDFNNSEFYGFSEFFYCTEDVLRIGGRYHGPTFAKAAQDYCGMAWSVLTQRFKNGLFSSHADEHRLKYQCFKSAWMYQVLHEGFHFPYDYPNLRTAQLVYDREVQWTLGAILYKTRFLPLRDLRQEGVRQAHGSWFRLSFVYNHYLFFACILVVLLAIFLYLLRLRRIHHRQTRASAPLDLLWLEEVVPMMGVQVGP
UniProt Q9NYP7: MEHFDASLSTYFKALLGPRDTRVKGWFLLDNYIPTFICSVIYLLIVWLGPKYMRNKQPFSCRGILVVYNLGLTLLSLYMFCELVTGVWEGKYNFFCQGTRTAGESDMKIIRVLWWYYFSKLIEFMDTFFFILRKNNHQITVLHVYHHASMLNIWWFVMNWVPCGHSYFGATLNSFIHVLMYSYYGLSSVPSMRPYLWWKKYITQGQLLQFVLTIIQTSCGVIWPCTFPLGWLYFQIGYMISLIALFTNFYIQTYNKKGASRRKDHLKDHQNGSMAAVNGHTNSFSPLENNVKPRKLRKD
UniProt Q8TE68: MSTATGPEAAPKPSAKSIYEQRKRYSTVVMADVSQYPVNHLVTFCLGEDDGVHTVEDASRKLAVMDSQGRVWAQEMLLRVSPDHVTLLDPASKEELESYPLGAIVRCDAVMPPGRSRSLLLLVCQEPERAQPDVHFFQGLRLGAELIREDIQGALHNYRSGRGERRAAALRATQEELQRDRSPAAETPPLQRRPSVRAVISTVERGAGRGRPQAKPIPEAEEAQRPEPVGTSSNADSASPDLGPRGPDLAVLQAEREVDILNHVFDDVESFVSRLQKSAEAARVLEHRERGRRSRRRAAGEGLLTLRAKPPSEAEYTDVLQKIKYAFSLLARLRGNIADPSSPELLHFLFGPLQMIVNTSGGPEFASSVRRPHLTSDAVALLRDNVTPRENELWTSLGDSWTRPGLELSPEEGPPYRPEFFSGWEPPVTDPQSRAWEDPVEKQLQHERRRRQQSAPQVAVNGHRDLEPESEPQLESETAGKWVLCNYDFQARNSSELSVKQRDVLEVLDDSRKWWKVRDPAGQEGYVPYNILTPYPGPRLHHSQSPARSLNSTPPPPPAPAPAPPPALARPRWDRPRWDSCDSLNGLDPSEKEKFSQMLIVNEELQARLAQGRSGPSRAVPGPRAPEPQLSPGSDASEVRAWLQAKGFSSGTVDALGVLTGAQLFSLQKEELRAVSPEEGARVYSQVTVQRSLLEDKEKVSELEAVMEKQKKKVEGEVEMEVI
UniProt Q8N766: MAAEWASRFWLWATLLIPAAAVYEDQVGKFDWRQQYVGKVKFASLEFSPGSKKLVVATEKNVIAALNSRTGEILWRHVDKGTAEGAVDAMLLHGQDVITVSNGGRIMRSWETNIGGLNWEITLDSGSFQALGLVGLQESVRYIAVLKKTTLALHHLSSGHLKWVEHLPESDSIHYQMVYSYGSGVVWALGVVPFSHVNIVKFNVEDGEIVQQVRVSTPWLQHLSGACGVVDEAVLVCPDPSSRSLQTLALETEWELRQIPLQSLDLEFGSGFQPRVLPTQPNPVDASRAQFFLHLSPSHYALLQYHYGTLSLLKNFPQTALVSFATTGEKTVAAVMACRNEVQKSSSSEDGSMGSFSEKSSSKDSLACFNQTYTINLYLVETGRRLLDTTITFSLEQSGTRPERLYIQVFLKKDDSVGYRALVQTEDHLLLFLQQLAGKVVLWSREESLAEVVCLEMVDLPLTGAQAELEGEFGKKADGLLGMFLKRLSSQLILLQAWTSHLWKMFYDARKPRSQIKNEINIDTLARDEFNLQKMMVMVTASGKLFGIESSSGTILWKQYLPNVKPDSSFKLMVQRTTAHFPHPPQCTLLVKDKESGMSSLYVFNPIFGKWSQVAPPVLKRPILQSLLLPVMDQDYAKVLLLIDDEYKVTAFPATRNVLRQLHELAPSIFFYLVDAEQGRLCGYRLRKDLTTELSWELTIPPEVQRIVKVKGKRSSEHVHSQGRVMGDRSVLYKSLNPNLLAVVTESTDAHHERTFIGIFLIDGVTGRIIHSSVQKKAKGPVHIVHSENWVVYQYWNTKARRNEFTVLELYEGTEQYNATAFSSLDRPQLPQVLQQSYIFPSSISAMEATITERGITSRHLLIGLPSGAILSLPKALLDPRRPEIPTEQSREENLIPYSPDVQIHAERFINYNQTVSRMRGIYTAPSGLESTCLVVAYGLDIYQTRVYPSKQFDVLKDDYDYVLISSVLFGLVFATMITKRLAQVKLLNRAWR

How the values were obtained:
Assay in all cases: log2 fold change, soluble protein after heating vs DMSO (PISA); higher = thermal stabilisation; K562 lysate, 10 uM; active = over 0.2 and 3.5 SD of the protein, either way, in both replicates (recomputed)
[1] = compound: C/C(=N\NC(=O)C1=CC(=CC=C1)S(=O)(=O)N2CCOCC2)/C3=C(C=CC(=C3)Cl)O
Method in brief: (§1)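 Pellets of K562 cells were dounce-homogenised in PBS pH 7.4 with 1 mM MgCl2, and the crude extract was held at 1 mg/mL protein for a 30 min treatment with 10 μM compound. Aliquots were heated for 3 min over 48°C-58°C and pooled before NP-40 was added to 0.5% at 4°C. The supernatant from 21,000xg for 90 min was quantified by TMTpro 16plex LC-MS/MS with channel sums equalised. Values are reported from duplicates as log-two fold change in thermal stability relative to solvent controls.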

[2] = compound: C1=CC2=C(C=CC(=C2)/C=C\3/C(=O)NC(=NCC4=CC=CS4)S3)N=C1
Method in brief: as §1

[3] = compound: C1=CC=C2C(=C1)C3=NNC4=CC=CC(=C43)C2=O
Method in brief: as §1

[4] = compound: C1CCN(C1)C(=O)NC2=CC=CC(=C2)NC3=NC=C(C(=N3)NCCC4=CN=CN4)Br
Method in brief: as §1

[5] = compound: C1CN(CCC1(CC2=CC=C(C=C2)Cl)N)C3=NC=NC4=C3C=CN4
Method in brief: as §1

[6] = compound: CC(=O)c1cnc2ccc(-c3cc(Cl)c(O)c(Cl)c3)nc2c1N[C@H]1CC[C@H](CN(C)C)CC1
Method in brief: as §1

[7] = compound: CC1=C(C(CC(=O)N1)C2=CC=C(C=C2)C(F)(F)F)C(=O)NC3=C(C=C4C(=C3)C=NN4)F
Method in brief: as §1

[8] = compound: CC1=CC=C(C=C1)SC2=C3C=C(SC3=CN=C2)C(=O)N
Method in brief: as §1

[9] = compound: C1=CC2=NC=CN=C2C=C1/C=C/3\C(=O)NC(=O)S3
Method in brief: as §1

[10] = compound: C1=CC=C(C=C1)C2=NC(=C(N2)C3=CC=NC=C3)C4=CC(=C(C=C4)Cl)O
Method in brief: as §1

IRAK-1-4 Inhibitor I = compound: C1COCCN1CCN2C3=CC=CC=C3N=C2NC(=O)C4=CC(=CC=C4)[N+](=O)[O-] [IRAK-1-4 Inhibitor I]
Method in brief: as §1

ibrutinib = compound: C=CC(=O)N1CCC[C@@H](n2nc(-c3ccc(Oc4ccccc4)cc3)c3c(N)ncnc32)C1 [ibrutinib]
Method in brief: as §1

ralimetinib = compound: CC(C)(C)Cn1c(N)nc2ccc(-c3[nH]c(C(C)(C)C)nc3-c3ccc(F)cc3)nc21 [ralimetinib]
Method in brief: as §1

[11] = compound: CC(C)(O)CC(=O)NCCn1ccc2ncnc(Nc3ccc(Oc4cccc(C(F)(F)F)c4)c(Cl)c3)c21
Method in brief: as §1

[12] = compound: CC1=C(C2=C(C=C1)C(=O)C3=CC=CC=C3N2CCCN)C
Method in brief: as §1

[13] = compound: CC1=C(C=C(C=C1)NC(=O)C2=CC(=CC=C2)C(C)(C)C#N)NC3=CC4=C(C=C3)N=CN(C4=O)C
Method in brief: as §1

[14] = compound: CC1=C(C=C(C=C1)NC(=O)C2=CC(=CC=C2)N(C)C)NC(=O)C3=CC=C(C=C3)O
Method in brief: as §1

erlotinib = compound: C#Cc1cccc(Nc2ncnc3cc(OCCOC)c(OCCOC)cc23)c1 [erlotinib]
Method in brief: as §1

[15] = compound: C1=CC(=CC=C1C2=NC3=C(N2)C=C(C=C3)C(=O)N)OC4=CC=C(C=C4)Cl
Method in brief: as §1

[16] = compound: CC(C)C1=C2N=C(C=C(N2N=C1)NCC3=CC=CC=C3)NCCCCCCN
Method in brief: as §1

Measured: log2 fold change

ENTPD7 (UniProt Q9NQZ7)
inactive: [1] -0.042 | [2] 0.105 | [3] -0.03 | [4] 0.072 | [5] 0.011 | [6] 0.155 | [7] -0.049 | [8] -0.239

ELOVL5 isoform 2 (UniProt Q9NYP7)
inactive: [1] -0.012 | [2] 0.057 | [9] 0.076 | [10] -0.065 | [3] -0.185 | [4] -0.04 | [5] -0.009 | IRAK-1-4 Inhibitor I 0.069 | ibrutinib -0.144 | [6] -0.008 | ralimetinib 0.054 | [11] -0.159 | [7] 0.034 | [12] 0.077 | [13] -0.005 | [14] 0.071 | [8] -0.038

EMC1 (UniProt H7C5A2)
inactive: erlotinib 0.028 | [15] 0.063 | [10] 0.1 | IRAK-1-4 Inhibitor I -0.011 | [6] -0.335 | ralimetinib -0.172 | [11] -0.129 | [16] 0 | [12] -0.15 | [13] 0.065 | [14] 0.078 | [8] -0.232

EPS8L1 (UniProt Q8TE68)
inactive: [1] 0.097 | [2] -0.028 | [9] -0.048 | [10] 0.024 | [3] -0.081 | [4] 0.081 | [5] -0.107 | IRAK-1-4 Inhibitor I 0.057 | ibrutinib 0.033 | ralimetinib 0.078 | [11] 0.039 | [12] -0.096 | [13] -0.042 | [14] -0.034

EPB41, A0A2R8Y783
inactive: [1] -0.136 | [2] 0.09 | [9] -0.058 | [3] 0.017 | [4] -0.001 | [5] 0.346 | ibrutinib 0.196 | [6] 0.093 | [12] 0.057 | [8] 0.034

EMC1 isoform 3 (UniProt Q8N766)
inactive: [10] 0.009 | IRAK-1-4 Inhibitor I 0.023 | [6] 0.164 | ralimetinib -0.03 | [11] -0.035 | [13] -0.012 | [14] -0.061 | [8] 0.003

Taken from the results shown (2 entries):
EMC1 (UniProt H7C5A2)
inactive: erlotinib 0.028 | [15] 0.063 | [10] 0.1 | IRAK-1-4 Inhibitor I -0.011 | [6] -0.335 | ralimetinib -0.172 | [11] -0.129 | [16] 0 | [12] -0.15 | [13] 0.065 | [14] 0.078 | [8] -0.232

EPS8L1 (UniProt Q8TE68)
inactive: [1] 0.097 | [2] -0.028 | [9] -0.048 | [10] 0.024 | [3] -0.081 | [4] 0.081 | [5] -0.107 | IRAK-1-4 Inhibitor I 0.057 | ibrutinib 0.033 | ralimetinib 0.078 | [11] 0.039 | [12] -0.096 | [13] -0.042 | [14] -0.034
